# Data taken from PubChem BioAssay (Tox21).
# Values joined by “and” are separate entries in the source; they are usually repeats but may differ in a detail not shown here. Equal values may be shown once. Inconclusive results, whose numbers are uncertain, are shown with a selection of clear calls. Where the call is inconclusive, the potency comes from a doubtful curve fit. Active and inactive are the calls of the source. The call rests on the fitted dose curve; in most records, active means well fitted cell-killing curve with a large enough effect in the repeat runs; inconclusive means weak or mixed curves, or effect the other way; inactive means flat fitted curve, though single readings scatter.
# Assay: cAMP Responsive Elements (CRE) small molecule agonists, cell-based qHTS assay: qHTS cell viability counter screen (AID 2060914); further: nearly all actives have a fitted effect of over 50% in size
# Details: CRE-bla HEK293T viability, CellTiter-Glo luminescence, 5 h; series mostly up to 92.4 µM; activity change, negative = cytotoxicity: at the top concentration
# Summary of the method: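 Cells are seeded and incubated 18 h, treated with compounds in DMSO for 3 h, read for the bla reporter, then given CellTiter-Glo; luminescence is measured after 30 min at room temperature.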
# On the % scale 0 is the no-effect control and ±100 the full control effect; potency means the concentration at half of the fitted maximal effect.
Structure (SMILES),Potency,"activity change, negative = cytotoxicity"
CC(CC1c2ccccc2CCc2ccccc21)CN(C)C (configuration not stated),"inconclusive: 26.6 µM [cytotoxic, partial curve, poor fit]",–
O=C(Nc1ccc(Cl)c(Cl)c1)C1CC1,"inconclusive: 8.41 µM [cytotoxic, partial curve, poor fit]",–
Cn1c(N)nc2nc[nH]c2c1=O,"inconclusive: 17 µM [rising, full curve, poor fit]",–
CC(=O)Nc1ccc2c(c1)Cc1cc(NC(C)=O)ccc1-2,inactive,–
CC(C)(C)c1ccc(S)cc1,–,inactive: -9.63%
CCCCC(CC)COC(=O)c1ccc(N(C)C)cc1 (configuration not stated),"inconclusive: 77 µM [cytotoxic, single point] and inconclusive: 29.8 µM [cytotoxic, single point]",–
c1ccc([C@H]2CN3CCSC3=N2)cc1,"inconclusive: 0.106 µM [cytotoxic, single point]",–
O=c1c(O)c(-c2ccc(O)c(O)c2)oc2cc(O)cc(O)c12,"inconclusive: 0.245 µM [cytotoxic, single point]",–
O=S(=O)(O)c1ccc(N=Nc2c(O)ccc3cc(S(=O)(=O)O)ccc23)cc1,"inconclusive: 0.244 µM [cytotoxic, single point]",–
Cn1cnc2c(F)c(Nc3ccc(Br)cc3Cl)c(C(=O)NOCCO)cc21,–,inactive: 1.68% [at 42.5 µM]
CC1=NN(c2cc(Cl)c(S(=O)(=O)O)cc2Cl)C(=O)C1N=Nc1ccc(S(=O)(=O)O)cc1 (configuration not stated),active: 2.43 µM,–
CC(C)CCCC(C)CCO (configuration not stated),"inconclusive: 13.7 µM [cytotoxic, single point]",–

# 2 entries from above in a different format:
Structure (SMILES) | Potency | activity change, negative = cytotoxicity
Cn1c(N)nc2nc[nH]c2c1=O | inconclusive: 17 µM [rising, full curve, poor fit] | –
CCCCC(CC)COC(=O)c1ccc(N(C)C)cc1 (configuration not stated) | inconclusive: 77 µM [cytotoxic, single point] and inconclusive: 29.8 µM [cytotoxic, single point] | –
